# Reference: US10041905B2, “Electrochemically active agents for pH modulation in biological buffers” (Robert Bosch GmbH, priority 2015, dated 2018)
# Assay: Electrochemical modulation of pH at ITO working electrode, monitored by GFP fluorescence intensity
# Format: physicochemical
# Conditions: diluted phosphate buffer pH 7.4 with 0.1 M Na2SO4
compound,measurement,setting,value
"Cc1cc(O)ccc1O [2-methyl-1,4-dihydroquinone]",solution pH after current-driven oxidation,50 microamps for 30 second,5.5
same,time for pH to recover to neutral value after current was turned off,,≤ 50 seconds
